# Primary screen of a compound library

Measurements from “University of Dundee, Small-Polar-MMV Screening Library” (2021), ChEMBL document CHEMBL3988442.

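Whole-cell assay for inhibitors of Mycobacterium tuberculosis growth, labelled Cornell in the record; the read-out is not stated. The concentration is filed as 10 mM, unlikely as a test dose, so the dose is not known. Higher means stronger inhibition (inferred from two other growth screens of the library). Size under these conditions: about 53,000 compounds, about 900 of them at 50% or above in at least one test.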

The filed quantity is “Percent Effect” (%).
The record does not define 0% and 100%; most values in the screen are far below 50% and negative numbers occur (in some assays of this library far below -100).
The compounds are a random part of those screened.

{"structure": "[H][C@]12CC[C@]([H])(CN(Cc3ccccn3)C1)N(C(=O)c1cc(C(C)C)on1)C2", "Percent Effect": 16.38}
{"structure": "c1cc(N2CCC(c3nnc(Cn4ccnc4)n3C3CC3)CC2)ccn1", "Percent Effect": 14.69}
{"structure": "O=C(NCCC1=CCCCC1)NCc1nnc2n1CCC2", "Percent Effect": 17.8}
{"structure": "CN(C)CCN1C(=O)CCC12CCCN(C(=O)CC1CC1)CC2", "stereo": "stereo not given", "Percent Effect": -18.12}
{"structure": "Cn1cc(CCCNC(=O)NCC(O)c2ccsc2)cn1", "stereo": "stereo not given", "Percent Effect": 13.46}
{"structure": "O=C(O)C(F)(F)F.[H][C@@]12COC[C@]1(COCc1cccnc1)CN(C(=O)c1occc1C)C2", "Percent Effect": 16.81}
{"structure": "Cc1[nH]/c(=N\\C(=O)c2csc(NC3CCCC3)n2)sc1C", "Percent Effect": 105}
{"structure": "CCOc1nnc(CN2CCN(CCOC)C(C)C2)s1", "stereo": "stereo not given", "Percent Effect": -30.78}
{"structure": "CC(=O)N1CC(c2n[nH]c3ncccc23)C1", "Percent Effect": -13.82}
{"structure": "CCOc1ccc(NC(=O)N2CCOC(C(N)=O)C2)cc1Cl", "stereo": "stereo not given", "Percent Effect": -28.39}
{"structure": "NC(=O)C1CN(Cc2c(O)ccc3oc4c(c23)CCCC4)CCO1", "stereo": "stereo not given", "Percent Effect": 19.84}
{"structure": "CCC(=O)NCC(CC)Oc1cccc(F)c1", "stereo": "stereo not given", "Percent Effect": 33.92}
{"structure": "O=C(NCC1CCS(=O)(=O)C1)c1ccc(NC(=O)c2ccco2)cc1", "stereo": "stereo not given", "Percent Effect": -44.62}
{"structure": "CS(=O)(=O)N1CCCC(Cc2ccnc(Nc3ccccn3)c2)C1", "stereo": "stereo not given", "Percent Effect": 11.5}
{"structure": "CS(=O)(=O)N1CCCC12CCCN(S(=O)(=O)c1cc(F)cc(F)c1)C2", "stereo": "stereo not given", "Percent Effect": 2.906}
{"structure": "Cc1nn(C)c(C)c1CCC(=O)NCC1(C(N)=O)CCOCC1", "Percent Effect": -40.21}
{"structure": "NC(=O)NCCC(=O)NCc1cccnc1N1CCc2ccccc2C1", "Percent Effect": -15.88}
{"structure": "CCOC(=O)N1CCC(OC)c2ccccc2N(CC(=O)NC)C(=O)C1", "stereo": "stereo not given", "Percent Effect": 9.191}
{"structure": "COc1ccc(OC)c2c(C)cc(N(C)CCO)nc12", "Percent Effect": 41.76}
{"structure": "O=C(O)C(F)(F)F.O=C(O)C(F)(F)F.[H][C@]12C[C@H](C(=O)NC)N(C(C)=O)[C@@]1([H])CN(Cc1cccnc1OC)C2", "Percent Effect": 6.04}
{"structure": "Cn1cnc(S(=O)(=O)N2CCCc3c(F)cc(F)cc32)c1Cl", "Percent Effect": 21.12}
{"structure": "CCc1nccn1C1CCCN(C(=O)c2cc[nH]n2)C1", "stereo": "stereo not given", "Percent Effect": 4.009}
{"structure": "Cc1nn(C)c2ncc(S(=O)(=O)N3CCN4CCCC4C3)cc12", "stereo": "stereo not given", "Percent Effect": 20.14}
{"structure": "CC(=O)Nc1cc(-c2cccc(F)c2F)n[nH]1", "Percent Effect": 22.81}
{"structure": "CCN(CC)S(=O)(=O)N1CCC(c2nccn2Cc2ccccn2)CC1", "Percent Effect": -4.625}
{"structure": "O=C(COCc1ccccc1)NCc1ccc(O)c(F)c1", "Percent Effect": -9.927}
{"structure": "O=C(NCCNc1ccccn1)NCC1CCS(=O)(=O)C1", "stereo": "stereo not given", "Percent Effect": -38.12}
{"structure": "COCCn1ccc(NC(=O)Nc2ccccc2)n1", "Percent Effect": 29.18}
{"structure": "CCN(CC)C1(Cc2cc(CC(C)C)on2)COC1", "Percent Effect": -2.034}

For reference, 2 entries once more:

- CCN(CC)S(=O)(=O)N1CCC(c2nccn2Cc2ccccn2)CC1 : -4.625%
- O=C(O)C(F)(F)F.O=C(O)C(F)(F)F.[H][C@]12C[C@H](C(=O)NC)N(C(C)=O)[C@@]1([H])CN(Cc1cccnc1OC)C2 : 6.04%